Whole data set: some 3,200 compounds, median “TSA(without NAD+) / Primary screening (TSA) / delta Tm (K)” near -0.07, cut for the highest 2% near 0.37. Some of the results follow.

By UniProt entry, the sequences of proteins in these tests, tags left out. Residues count along the entry.
UniProt Q96EB6, 2-747 limits assumed: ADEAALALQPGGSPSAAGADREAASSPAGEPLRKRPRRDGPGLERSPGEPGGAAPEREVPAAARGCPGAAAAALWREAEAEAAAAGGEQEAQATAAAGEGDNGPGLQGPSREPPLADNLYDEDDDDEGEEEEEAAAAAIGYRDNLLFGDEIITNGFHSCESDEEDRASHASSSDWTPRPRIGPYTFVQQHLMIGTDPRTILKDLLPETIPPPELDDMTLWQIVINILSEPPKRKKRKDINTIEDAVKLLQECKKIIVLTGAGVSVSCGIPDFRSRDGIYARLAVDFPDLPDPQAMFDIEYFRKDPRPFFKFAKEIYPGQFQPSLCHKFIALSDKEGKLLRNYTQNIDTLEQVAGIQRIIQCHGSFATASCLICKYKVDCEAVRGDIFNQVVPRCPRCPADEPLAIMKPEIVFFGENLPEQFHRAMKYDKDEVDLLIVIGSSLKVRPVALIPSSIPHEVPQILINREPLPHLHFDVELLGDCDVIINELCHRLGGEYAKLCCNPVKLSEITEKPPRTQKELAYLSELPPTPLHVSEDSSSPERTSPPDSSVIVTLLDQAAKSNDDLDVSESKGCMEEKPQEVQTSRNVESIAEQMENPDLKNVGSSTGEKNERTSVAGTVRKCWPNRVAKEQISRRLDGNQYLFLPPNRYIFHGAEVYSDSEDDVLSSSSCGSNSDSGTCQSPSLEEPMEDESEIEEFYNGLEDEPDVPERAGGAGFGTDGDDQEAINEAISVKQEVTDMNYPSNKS

The target in the experiment is NAD-dependent deacetylase Sirtuin 1 (human, UniProt Q96EB6). As to the kind of experiment: primary screen, delta tm. The arrangement: single well (n = 1). The conditions noted are these: 10 µM. The gist of the method:
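Thermal shift of Sirtuin 1 measured without NAD+, compound at 10 µM (n = 1); value is ΔTm, with hits defined as ΔTm > 0.45 K or < −1.5 K. Hits retested at 5, 10, 20 µM (n = 4) and counterscreened on bovine carbonic anhydrase and ABL1 SH2 domain.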
Regarding `NC(=O)c1cnc(NC(=O)Cc2cc3c(ccc4ccccc43)o2)s1`, the “TSA(without NAD+) / Primary screening (TSA) / delta Tm (K)” value was -0.03 K.
With `CCCCn1c(COc2ccc(N(C)S(=O)(=O)c3ccc(C)cc3)cc2)nc2cc(S(N)(=O)=O)ccc21` the figure was -0.14 K; with `C=CCNC(=O)CN1CCN(c2ncnc3sc4c(c23)CCC4)CC1`, 0.08 K.
The same measure for `CC(C)(C)OC(=O)N1CCC(CC(=O)Nc2ccccc2-c2nc3ccccc3[nH]2)CC1`: 0.02 K; for `O=C(COC(=O)C(Cc1ccccc1)NC(=O)c1ccccc1)NCC12CC3CC(CC(C3)C1)C2` (centres unmarked): 0.03 K; for `NC(=O)C(NC(=O)COc1ccc(C(=O)c2ccccc2)cc1)C(N)=O`: 0.06 K.
The same measure for `OC1CCCCC1Nc1cnc2ccccc2n1` (centres unmarked): -0.07 K; for `NC(=S)c1ccc(C(=O)NC2CCSc3c(F)cccc32)cc1` (centres unmarked): -0.23 K.
For the compound `Cc1nc(-c2ccccn2)nc(N2CCCC(C(N)=O)C2)c1C` (centres unmarked), the “TSA(without NAD+) / Primary screening (TSA) / delta Tm (K)” value is reported as -0.12 K.
The same measure for `COCCN(C)Cc1ccc(-c2cccc(F)c2C)o1`: -0.24 K; for `Cc1ccc(-c2nn(-c3ccccc3)cc2C=C2C(=O)NC(=O)NC2=O)o1`: -0.33 K.
With `c1ccc(-c2[nH]c3ccccc3c2-c2ccccc2)cc1` the figure was 0.45 K.
With `COc1cccc(-c2noc(COC(=O)C3CCCN3C(=O)C34CC5CC(CC(C5)C3)C4)n2)c1` (centres unmarked) the figure was 0.08 K.
On to `Cc1ccc2nc(C)c(C(=O)Nc3cccc(-c4nnn[nH]4)c3)cc2c1`, for which the “TSA(without NAD+) / Primary screening (TSA) / delta Tm (K)” value is reported as -0.12 K.
On to `CCOCC(O)CN` (centres unmarked), for which the “TSA(without NAD+) / Primary screening (TSA) / delta Tm (K)” value is given as -0.12 K.
The same measure for `CC1CCc2[nH]c3ccc(C(=O)Nc4cccc(S(=O)(=O)N(C)c5ccccc5)c4)cc3c2C1` (centres unmarked): 0.42 K.
Turning to `O=C(NNC1c2ccccc2-c2ccccc21)C1COc2ccccc2O1` (centres unmarked), the “TSA(without NAD+) / Primary screening (TSA) / delta Tm (K)” value is 0.09 K.
With `Cc1cc(=O)oc2cc(OCC(=O)NC3CCC4CCCCC4C3)ccc12` (centres unmarked) the figure was -0.08 K; with `CC(=O)OCC1OC(COc2ccc(C(=O)Cc3csc(-c4ccccc4)n3)c(O)c2)C(OC(C)=O)C(OC(C)=O)C1OC(C)=O` (centres unmarked), -0.03 K; with `Cc1ccccc1N1C(=O)c2ccc(C(=O)NCC34CC5CC(CC(C5)C3)C4)cc2C1=O`, 0.07 K.
With `Cc1ccc(NC(=O)CN2CSCC2=O)c(OCCN(C)C)c1` the figure was -0.15 K; with `O=C(COC(=O)c1cccc(NS(=O)(=O)/C=C/c2ccccc2)c1)NC12CC3CC(CC(C3)C1)C2`, 0.02 K; with `NC(=O)c1csc(C(=O)NCc2ccn(-c3ccccc3F)n2)c1`, -0.12 K.
With `Cc1ccc(Oc2ccc(NC(=O)c3cncc(Br)c3)cc2)cc1` the figure was -0.02 K; with `Cc1nc2c3ccccc3nc(SCC(=O)Nc3cc(C(F)(F)F)ccc3-n3cncn3)n2n1`, -0.23 K.
As to `Cc1cc2occ(CC(=O)N3CCC(C(N)=O)C3)c2cc1C(C)C` (centres unmarked), the “TSA(without NAD+) / Primary screening (TSA) / delta Tm (K)” value was -0.07 K.
With `COc1ccc(C(=O)C2=C(O)C(=O)N(CCCN3CCOCC3)C2c2ccc(Cl)cc2)cc1C` (centres unmarked) the figure was 0.08 K; with `COC(=O)CSc1nc2ccc(OC)cc2[nH]1`, -0.12 K; with `CCOC(C)CN` (centres unmarked), -0.32 K.
For `NC(=O)c1ccc(N2CCCC2)c(NC(=O)CCNC(=O)Cc2ccccc2)c1`, the “TSA(without NAD+) / Primary screening (TSA) / delta Tm (K)” value is given as -0.11 K.
With `NC(=O)c1ccc(F)c(NC(=O)NCc2ccc(N3CCCCCC3)nc2)c1`, the “TSA(without NAD+) / Primary screening (TSA) / delta Tm (K)” value was -0.08 K.
The same measure for `COCCNc1oc2c(c1-c1ccccc1[N+](=O)[O-])c(=O)oc1ccc(C)cc12`: -0.23 K; for `COc1ccc(N2C(=O)/C(=C/NNC(=O)C34CC5CC(CC(C5)C3)C4)c3ccccc3C2=O)cc1`: 0.43 K.
On to `CC1CCCCN1CCCCNC(=O)c1ccc2c(c1)C(=O)N(CCc1ccccc1)C2=O` (centres unmarked), for which the “TSA(without NAD+) / Primary screening (TSA) / delta Tm (K)” value was determined as 0.16 K.
On to `O=C(O)CN1C(=O)CSC1=S`, for which the “TSA(without NAD+) / Primary screening (TSA) / delta Tm (K)” value amounted to 0.27 K.
With `Cc1ccc(N(C)S(=O)(=O)c2cccc(C(=O)NCCc3c[nH]c4ccccc34)c2)cc1` the figure was 0.23 K.
With `COc1ccc(NC(=O)C2=COCCO2)cc1S(=O)(=O)N1CCOCC1` the figure was -0.13 K.
With `O=C(CN1CCc2ccccc21)Nc1cnc2ccccc2c1` the figure was -0.04 K; with `O=[N+]([O-])c1ccc(/C=C/C2=NN(c3ccccc3)C(c3ccco3)C2)o1` (centres unmarked), -0.03 K.
With `O[C@H]1CCN(c2ncnc3ccsc23)C1`, the “TSA(without NAD+) / Primary screening (TSA) / delta Tm (K)” value is recorded as 0.07 K.
On to `CS(=O)(=O)Nc1cccc(OCCNC(=O)C2=NN(Cc3ccccc3)C(=O)CC2)c1`, for which the “TSA(without NAD+) / Primary screening (TSA) / delta Tm (K)” value is -0.01 K.
The same measure for `Cc1cc(=O)oc2cc(OCC(=O)Nc3ccc4ccccc4c3)ccc12`: 0.19 K; for `OC1CN(c2ncnc3c2oc2ccccc23)C1`: 0.05 K.
For the compound `O=C(CCc1cccnc1)NCCCc1nc2ccccc2[nH]1`, the “TSA(without NAD+) / Primary screening (TSA) / delta Tm (K)” value is given as -0.02 K.
With `COc1cc(CNC(=O)CCc2c(C)nc(N3CCOCC3)[nH]c2=O)ccc1OCc1ccccc1` the figure was -0.23 K; with `Cc1cc(C(=O)COC(=O)c2cc(S(=O)(=O)N3CCCCC3)ccc2N2CCCCC2)c(C)n1CC1CCCO1` (centres unmarked), 0.02 K.
The same measure for `Nc1ccc(NC=C2C(=O)CC(c3ccccc3)CC2=O)cc1` (centres unmarked): 0.07 K; for `NC(=O)c1ccc(COC(=O)c2ccc(S(N)(=O)=O)cc2)cc1`: -0.11 K; for `O=C(Cc1noc2ccccc12)NCc1ccc(N2CCCC2=O)cc1`: 0.02 K.
`NS(=O)(=O)CCNc1ncnc2ccsc12`: the “TSA(without NAD+) / Primary screening (TSA) / delta Tm (K)” value is -0.07 K.
With `C#C[C@]1(O)CC[C@H]2[C@@H]3CCC4=CC(=O)CC[C@@H]4[C@H]3CC[C@@]21CC` the figure was -0.04 K.
With `Cc1nnc(CNC(=O)c2cc(-c3ccccc3)nc3c(C(N)=O)ncn23)s1` the figure was -0.04 K; with `NC(=O)c1ccc(C(=O)NC2CCN(C(=O)NC3CCCCC3)CC2)cc1`, -0.17 K.
Consider `O=C(CC12CC3CC(CC(C3)C1)C2)NNC(=O)[C@H](Cc1ccccc1)N1C(=O)c2ccccc2C1=O`, for which the “TSA(without NAD+) / Primary screening (TSA) / delta Tm (K)” value was 0.12 K.
Consider `Cc1nn(-c2ccccc2)c(C)c1NC(=O)COC(=O)c1ccc2[nH]c(C)c(C)c2c1`, for which the “TSA(without NAD+) / Primary screening (TSA) / delta Tm (K)” value was -0.02 K.
`Cc1nc2cc(C(=O)NCc3nnc4ccccn34)ccc2n1-c1ccccc1`: the “TSA(without NAD+) / Primary screening (TSA) / delta Tm (K)” value is -0.18 K.

Values taken from paper PMC6925144, “A prospective compound screening contest identified broader inhibitors for Sirtuin 1” (Scientific Reports, 2019).
